Reference: paper doi:10.1101/2022.10.13.511879 (bioRxiv, 2022)
No constants are given. Whether binding was seen depends on the method and setting. For part of these data: In cells and extracts the contact can be indirect. Some binding calls cover weakened binding; strength is not graded here. For part of these data: Where a sequence is shown, tags or fusion partners need not be part of it.

What was measured:
[1] = target: T1, POPDC2 (mouse, endogenous in heart) (mouse (endogenous in mouse heart)) (UniProt Q9ES82); assay: proximity ligation
T1 sequence: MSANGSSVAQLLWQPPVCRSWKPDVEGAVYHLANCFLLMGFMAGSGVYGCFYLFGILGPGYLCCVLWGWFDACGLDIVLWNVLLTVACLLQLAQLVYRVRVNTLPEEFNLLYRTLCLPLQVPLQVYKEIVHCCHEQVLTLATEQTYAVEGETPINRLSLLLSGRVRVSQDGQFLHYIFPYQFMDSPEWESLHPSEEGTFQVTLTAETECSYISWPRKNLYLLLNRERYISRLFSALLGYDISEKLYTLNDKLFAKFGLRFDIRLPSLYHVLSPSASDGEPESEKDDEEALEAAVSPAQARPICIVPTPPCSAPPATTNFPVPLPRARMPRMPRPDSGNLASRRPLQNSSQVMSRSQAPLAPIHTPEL

[2] = target: T1, POPDC2 (mouse, endogenous in heart) (mouse (endogenous in mouse heart)); assay: co-IP
[3] = target: T2, POPDC2 with C-terminal NanoLuc or HaloTag (NanoBRET constructs) (human) (UniProt Q9HBU9); assay: FRET or BRET
T2 sequence: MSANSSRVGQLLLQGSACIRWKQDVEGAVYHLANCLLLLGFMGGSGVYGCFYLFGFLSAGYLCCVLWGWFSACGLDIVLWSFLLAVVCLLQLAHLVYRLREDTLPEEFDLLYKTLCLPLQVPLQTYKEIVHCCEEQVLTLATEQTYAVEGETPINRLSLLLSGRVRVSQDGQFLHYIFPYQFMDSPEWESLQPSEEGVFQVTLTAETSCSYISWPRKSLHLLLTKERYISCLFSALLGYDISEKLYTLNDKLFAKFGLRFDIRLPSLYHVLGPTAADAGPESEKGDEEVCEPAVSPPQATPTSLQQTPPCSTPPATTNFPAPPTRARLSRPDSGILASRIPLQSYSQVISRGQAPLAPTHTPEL

[4] = target: T3, POPDC1-Myc (not stated (human or mouse cDNA cloned)) (UniProt Q8NE79); assay: co-IP
T3 sequence: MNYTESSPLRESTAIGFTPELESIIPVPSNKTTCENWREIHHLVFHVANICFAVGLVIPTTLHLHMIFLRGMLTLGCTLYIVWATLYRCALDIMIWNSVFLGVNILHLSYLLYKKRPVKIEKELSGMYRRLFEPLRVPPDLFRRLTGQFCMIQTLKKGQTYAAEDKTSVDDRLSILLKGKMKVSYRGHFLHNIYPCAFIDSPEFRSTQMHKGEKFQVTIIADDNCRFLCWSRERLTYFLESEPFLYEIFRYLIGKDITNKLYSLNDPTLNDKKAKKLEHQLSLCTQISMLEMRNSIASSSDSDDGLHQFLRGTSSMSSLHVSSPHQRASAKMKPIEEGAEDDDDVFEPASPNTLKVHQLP

POPDC3-Myc = target: T4, POPDC3-Myc (UniProt Q9HBV1); assay: co-IP
T4 sequence: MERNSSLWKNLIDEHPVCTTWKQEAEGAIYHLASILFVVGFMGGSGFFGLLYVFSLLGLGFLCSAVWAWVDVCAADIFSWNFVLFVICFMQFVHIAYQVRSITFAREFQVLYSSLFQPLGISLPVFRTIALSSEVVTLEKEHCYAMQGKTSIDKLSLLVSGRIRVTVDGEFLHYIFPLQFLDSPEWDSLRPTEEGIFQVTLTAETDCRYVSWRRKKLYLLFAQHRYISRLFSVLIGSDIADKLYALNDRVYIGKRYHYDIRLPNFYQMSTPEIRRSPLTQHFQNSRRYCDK

POPDC1-CFP (human) = target: T5, POPDC1-CFP (human) (UniProt Q8NE79); assay: SDS-PAGE and Western blot of oligomer bands that withstand SDS
T5 sequence: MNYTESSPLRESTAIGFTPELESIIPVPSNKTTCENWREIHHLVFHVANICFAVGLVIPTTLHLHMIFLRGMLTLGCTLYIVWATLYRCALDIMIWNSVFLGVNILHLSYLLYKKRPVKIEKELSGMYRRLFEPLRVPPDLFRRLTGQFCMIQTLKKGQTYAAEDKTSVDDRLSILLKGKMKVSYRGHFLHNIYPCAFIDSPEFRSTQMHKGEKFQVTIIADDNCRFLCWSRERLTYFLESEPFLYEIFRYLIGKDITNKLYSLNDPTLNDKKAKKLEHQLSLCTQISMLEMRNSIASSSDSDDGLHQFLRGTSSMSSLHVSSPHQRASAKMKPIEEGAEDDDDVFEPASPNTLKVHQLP

POPDC2-VN155 = target: T6, POPDC2-VN155 (human, UniProt Q9HBU9 1-364); assay: split reporter
T6 sequence (looked up): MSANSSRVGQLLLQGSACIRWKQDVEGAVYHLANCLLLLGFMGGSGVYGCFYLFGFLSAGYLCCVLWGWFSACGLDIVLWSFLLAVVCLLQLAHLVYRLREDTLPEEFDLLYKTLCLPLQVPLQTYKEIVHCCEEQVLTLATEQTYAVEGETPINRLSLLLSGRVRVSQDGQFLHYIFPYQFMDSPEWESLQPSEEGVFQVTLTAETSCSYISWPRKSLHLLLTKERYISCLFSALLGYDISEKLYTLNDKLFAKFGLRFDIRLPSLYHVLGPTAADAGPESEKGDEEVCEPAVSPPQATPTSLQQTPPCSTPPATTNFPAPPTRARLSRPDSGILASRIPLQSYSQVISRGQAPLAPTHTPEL

[5] = target: T7, POPDC1-HA (not stated (human or mouse cDNA cloned)) (UniProt Q8NE79); assay: co-IP
T7 sequence: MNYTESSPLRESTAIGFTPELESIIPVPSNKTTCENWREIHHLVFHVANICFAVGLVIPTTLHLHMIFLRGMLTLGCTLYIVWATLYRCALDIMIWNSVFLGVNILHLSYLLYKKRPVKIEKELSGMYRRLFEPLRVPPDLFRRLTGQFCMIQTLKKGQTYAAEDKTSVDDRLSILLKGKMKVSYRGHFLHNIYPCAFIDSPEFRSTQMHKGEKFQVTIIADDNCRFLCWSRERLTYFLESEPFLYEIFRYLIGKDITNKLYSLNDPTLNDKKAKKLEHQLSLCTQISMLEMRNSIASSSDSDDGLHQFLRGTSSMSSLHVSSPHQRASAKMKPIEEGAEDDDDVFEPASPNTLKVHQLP

B1: POPDC1 (mouse, endogenous in heart) (protein, UniProt Q9ES83 1-358)
chain: MNSTESIPLAQSTVAGFTSELESLTPVPSNETTCENWREIHHLVFHVANVCFAVGLLIPTTLHLHMILLRVMLSLGCTLYVVWATLYRCALDVMIWNSVFLGINILHLSYLLYKKRPVKIEKELGGVYHRLFEPLRVPPDLFRRLTGQFCMIQTLKRGQVYATEDKTSVDDRLSILLKGRMKVSYRGHFLHNIYPCAFIDSPEFRSTQMHKGEKFQVTIVADDNCRFLCWSRERLTYFLESEPFLYEIFRYLIGKDITNKLYSLNDPTLNDKKVKKLEPQMSLCTQISMLEMRNSITSSSDGEDGLHHFLRGSSSTASLPMSSPQQRASAKMKPIEEGVEDDDEVFVSPDALKVHQLP
binding [1]: binds | binding [2]: binds

B2: POPDC1 with C-terminal NanoLuc or HaloTag (NanoBRET constructs) (natural protein, human, UniProt Q8NE79 1-360, looked up)
chain: MNYTESSPLRESTAIGFTPELESIIPVPSNKTTCENWREIHHLVFHVANICFAVGLVIPTTLHLHMIFLRGMLTLGCTLYIVWATLYRCALDIMIWNSVFLGVNILHLSYLLYKKRPVKIEKELSGMYRRLFEPLRVPPDLFRRLTGQFCMIQTLKKGQTYAAEDKTSVDDRLSILLKGKMKVSYRGHFLHNIYPCAFIDSPEFRSTQMHKGEKFQVTIIADDNCRFLCWSRERLTYFLESEPFLYEIFRYLIGKDITNKLYSLNDPTLNDKKAKKLEHQLSLCTQISMLEMRNSIASSSDSDDGLHQFLRGTSSMSSLHVSSPHQRASAKMKPIEEGAEDDDDVFEPASPNTLKVHQLP
binding [3]: binds

B3: POPDC2 W188X-FLAG (domain or fragment, UniProt Q9HBU9 1-187)
chain: MSANSSRVGQLLLQGSACIRWKQDVEGAVYHLANCLLLLGFMGGSGVYGCFYLFGFLSAGYLCCVLWGWFSACGLDIVLWSFLLAVVCLLQLAHLVYRLREDTLPEEFDLLYKTLCLPLQVPLQTYKEIVHCCEEQVLTLATEQTYAVEGETPINRLSLLLSGRVRVSQDGQFLHYIFPYQFMDSPE
binding [4]: binds

B4: POPDC2-FLAG (protein, UniProt Q9HBU9 1-364)
chain: MSANSSRVGQLLLQGSACIRWKQDVEGAVYHLANCLLLLGFMGGSGVYGCFYLFGFLSAGYLCCVLWGWFSACGLDIVLWSFLLAVVCLLQLAHLVYRLREDTLPEEFDLLYKTLCLPLQVPLQTYKEIVHCCEEQVLTLATEQTYAVEGETPINRLSLLLSGRVRVSQDGQFLHYIFPYQFMDSPEWESLQPSEEGVFQVTLTAETSCSYISWPRKSLHLLLTKERYISCLFSALLGYDISEKLYTLNDKLFAKFGLRFDIRLPSLYHVLGPTAADAGPESEKGDEEVCEPAVSPPQATPTSLQQTPPCSTPPATTNFPAPPTRARLSRPDSGILASRIPLQSYSQVISRGQAPLAPTHTPEL
binding (POPDC3-Myc): no binding | binding [4]: binds | binding (POPDC1-CFP (human)): binds

B5: POPDC1-VC155 (natural protein, human, UniProt Q8NE79 1-360, looked up)
chain: MNYTESSPLRESTAIGFTPELESIIPVPSNKTTCENWREIHHLVFHVANICFAVGLVIPTTLHLHMIFLRGMLTLGCTLYIVWATLYRCALDIMIWNSVFLGVNILHLSYLLYKKRPVKIEKELSGMYRRLFEPLRVPPDLFRRLTGQFCMIQTLKKGQTYAAEDKTSVDDRLSILLKGKMKVSYRGHFLHNIYPCAFIDSPEFRSTQMHKGEKFQVTIIADDNCRFLCWSRERLTYFLESEPFLYEIFRYLIGKDITNKLYSLNDPTLNDKKAKKLEHQLSLCTQISMLEMRNSIASSSDSDDGLHQFLRGTSSMSSLHVSSPHQRASAKMKPIEEGAEDDDDVFEPASPNTLKVHQLP
binding (POPDC2-VN155): binds

B6: POPDC1 p.V183F-VC155 (protein, UniProt Q8NE79 1-360)
chain: MNYTESSPLRESTAIGFTPELESIIPVPSNKTTCENWREIHHLVFHVANICFAVGLVIPTTLHLHMIFLRGMLTLGCTLYIVWATLYRCALDIMIWNSVFLGVNILHLSYLLYKKRPVKIEKELSGMYRRLFEPLRVPPDLFRRLTGQFCMIQTLKKGQTYAAEDKTSVDDRLSILLKGKMKFSYRGHFLHNIYPCAFIDSPEFRSTQMHKGEKFQVTIIADDNCRFLCWSRERLTYFLESEPFLYEIFRYLIGKDITNKLYSLNDPTLNDKKAKKLEHQLSLCTQISMLEMRNSIASSSDSDDGLHQFLRGTSSMSSLHVSSPHQRASAKMKPIEEGAEDDDDVFEPASPNTLKVHQLP
binding (POPDC2-VN155): binds

B7: POPDC3-FLAG (protein, UniProt Q9HBV1 1-291)
chain: MERNSSLWKNLIDEHPVCTTWKQEAEGAIYHLASILFVVGFMGGSGFFGLLYVFSLLGLGFLCSAVWAWVDVCAADIFSWNFVLFVICFMQFVHIAYQVRSITFAREFQVLYSSLFQPLGISLPVFRTIALSSEVVTLEKEHCYAMQGKTSIDKLSLLVSGRIRVTVDGEFLHYIFPLQFLDSPEWDSLRPTEEGIFQVTLTAETDCRYVSWRRKKLYLLFAQHRYISRLFSVLIGSDIADKLYALNDRVYIGKRYHYDIRLPNFYQMSTPEIRRSPLTQHFQNSRRYCDK
binding [5]: binds | binding (POPDC1-CFP (human)): binds

B8: POPDC2 with C-terminal NanoLuc or HaloTag (NanoBRET constructs) (protein, UniProt Q9HBU9 1-364)
chain: MSANSSRVGQLLLQGSACIRWKQDVEGAVYHLANCLLLLGFMGGSGVYGCFYLFGFLSAGYLCCVLWGWFSACGLDIVLWSFLLAVVCLLQLAHLVYRLREDTLPEEFDLLYKTLCLPLQVPLQTYKEIVHCCEEQVLTLATEQTYAVEGETPINRLSLLLSGRVRVSQDGQFLHYIFPYQFMDSPEWESLQPSEEGVFQVTLTAETSCSYISWPRKSLHLLLTKERYISCLFSALLGYDISEKLYTLNDKLFAKFGLRFDIRLPSLYHVLGPTAADAGPESEKGDEEVCEPAVSPPQATPTSLQQTPPCSTPPATTNFPAPPTRARLSRPDSGILASRIPLQSYSQVISRGQAPLAPTHTPEL
binding [3]: binds
